In the test the test system is Drosophila melanogaster DPAGT1 (Alg7) RNAi eye model. In words: eye size Z-score vs DMSO-treated DPAGT1 model flies; higher = larger eye (suppression of DPAGT1 phenotype). The note with it: 5 uM.

This note sets out measurements from the supplement of paper PMC11542785.

Where a name gives a salt, the structure may show the parent alone. Some of the results follow. Most values come without repeats; read them as rough.

As for `O=C(CCCN1CCC2(CC1)C(=O)NCN2c1ccccc1)c1ccc(F)cc1` [Spiperone], the “eye size Z-score” value came to 0.71.

On to `CC(N)C(O)c1ccccc1` (stereo not drawn) [Phenylpropanolamine hydrochloride], for which the “eye size Z-score” value was -1.13. On the same count and under the same terms, to `C=C1CC[C@@]2(O)[C@H]3Cc4ccc(O)c5c4[C@@]2(CCN3CC2CC2)[C@H]1O5` [Nalmefene hydrochloride] belongs -0.32; to `O=[N+]([O-])O[C@H]1CO[C@H]2[C@@H]1OC[C@H]2O[N+](=O)[O-]` [Isosorbide dinitrate], 0.3. Consider `NCC1(CC(=O)O)CCCCC1` [Gabapentin], for which, where the note is “female”, the “eye size Z-score” value was found to be 0.1. On to `CC(O)(CS(=O)(=O)c1ccc(F)cc1)C(=O)Nc1ccc(C#N)c(C(F)(F)F)c1` (stereo not drawn) [Bicalutamide], for which the “eye size Z-score” value was found to be 0.07. For the compound `CCOC(=O)c1cncn1[C@H](C)c1ccccc1` [Etomidate], the “eye size Z-score” value turned out to be 0.31.

For `Cc1cc(C(C#N)c2ccc(Cl)cc2)c(Cl)cc1NC(=O)c1cc(I)cc(I)c1O` (stereo not drawn) [Closantel], the “eye size Z-score” value worked out at 1.08. As for `C[C@@H]1C[C@@H]([C@H](O)CC2CC(=O)NC(=O)C2)C(=O)[C@@H](C)C1` [Cycloheximide], the “eye size Z-score” value came to 0.67. Same read-out and setting: in the case of `CCC1(C2=NCCN2)Cc2ccccc2O1` (stereo not drawn) [Efaroxan hydrochloride] it was 0.67; in that of `CC[C@@H](CO)NC(=O)[C@@H]1C=C2c3cccc4[nH]cc(c34)C[C@H]2N(C)C1` [Methylergometrine maleate], 0.75; in that of `COc1cc2c(c(OC)c1OC)-c1ccc(OC)c(=O)cc1[C@@H](NC(C)=O)CC2` [Colchicine], -0.36. For the compound `C[C@]12CC[C@H](O)CC1=CC[C@@H]1[C@@H]2CC[C@]2(C)C(=O)CC[C@@H]12` [Prasterone], the “eye size Z-score” value was found to be 0.37.

For `CC[N+]1(C)CCCC(OC(=O)C(O)(c2ccccc2)c2ccccc2)C1` (stereo not drawn) [Pipenzolate bromide], the “eye size Z-score” value is 0.08.

For `c1ccc2c(c1)OCC(C1=NCCN1)O2` (stereo not drawn) [Idazoxan hydrochloride], the “eye size Z-score” value was found to be 0.63.

Take `CCCCCC[C@H]1C(=O)O[C@H](C)[C@H](NC(=O)c2cccc(NC=O)c2O)C(=O)O[C@@H](C)[C@@H]1OC(=O)CC(C)C` [Antimycin A]: the “eye size Z-score” value came to 0.05. Still for that read-out and setting: in the case of `CC(C)c1cccc(C(C)C)c1O` [Propofol] it was -0.28. With `C[C@]12CC[C@H](O)C[C@H]1CC[C@@H]1[C@@H]2CC[C@]2(C)[C@@H](C3=CC(=O)OC3)CC[C@]12O` [Digitoxigenin], the “eye size Z-score” value was -0.87. On the same count and under the same terms, to `Oc1ccc2c3c1O[C@H]1[C@@H](O)CC[C@@]4(O)[C@@H](C2)N(CC2CCC2)CC[C@]314` [Nalbuphine hydrochloride] belongs 0.52; to `O=C(NCNC(=O)NC1C(=O)NC(=O)N1CO)NC1C(=O)NC(=O)N1CO` (stereo not drawn) [Imidurea], 0.38. Still for that read-out and setting: in the case of `CC(=O)O[C@H]1CC[C@@]2(C)C(=CC[C@@H]3[C@@H]2CC[C@]2(C)C(=O)CC[C@@H]32)C1` [Dehydroisoandosterone 3-acetate] it was 0.85. For the compound `CN1C[C@H](CNC(=O)OCc2ccccc2)C[C@@H]2c3cccc4c3c(cn4C)C[C@H]21` [Metergoline], the “eye size Z-score” value was determined as 0.17.

Take `C=CCN1CC[C@]23c4c5ccc(O)c4O[C@H]2C(=O)CC[C@@]3(O)[C@H]1C5` [Naloxone hydrochloride]: the “eye size Z-score” value was -0.68. Same read-out and setting: to `CCCC(C)C1(CC)C(=O)NC(=O)NC1=O` (stereo not drawn) [Pentobarbital] belongs 0.7; to `CCCC[N+]1(C)[C@@H]2C[C@@H](OC(=O)[C@H](CO)c3ccccc3)C[C@H]1[C@@H]1O[C@@H]12` (stereo partly drawn) [N-Butylscopolammonium bromide], 0.16. For the compound `C[C@]12CCC(=O)C=C1C=C[C@@H]1[C@@H]2CC[C@@]2(C)[C@H]1CC[C@@]2(O)CCC(=O)O` [Canrenoic acid potassium salt], the “eye size Z-score” value was -0.09. On to `CC[C@@H](C(=O)[C@@H](C)[C@@H](O)[C@H](C)[C@@H]1O[C@@H]([C@@H](CC)C(=O)O)CC[C@@H]1C)[C@H]1O[C@]2(C=C[C@@H](O)[C@]3(CC[C@@](C)([C@H]4CC[C@](O)(CC)[C@H](C)O4)O3)O2)[C@H](C)C[C@@H]1C` [Salinomycin sodium], for which the “eye size Z-score” value amounted to 1.58. Same read-out and setting: in the case of `Cc1cccc(C)c1NC(=O)CN1CCCC1=O` [Nefiracetam] it was 0.55; in that of `NCC(O)c1ccc(O)cc1` (stereo not drawn) [Octopamine hydrochloride], -0.46. In the case of `c1ccc2c(c1)Nc1ccccc1S2` [Phenothiazine], the “eye size Z-score” value was 0.88. The same measure, in the same setting: to `O=c1c2ccccc2[se]n1-c1ccccc1` [Ebselen] belongs 0.76; to `CC(=O)O[C@H]1C[C@@H]2CC[C@@H]3[C@H](CC[C@@]4(C)[C@H]3C[C@H]([N+]3(C)CCCCC3)[C@@H]4OC(C)=O)[C@@]2(C)C[C@@H]1[N+]1(C)CCCCC1` [Pancuronium bromide], 0.79.

`CN[C@@H]1[C@@H](O)[C@@H](O[C@@H]2[C@@H](O)[C@H](O[C@H]3O[C@H](CN)CC[C@H]3N)[C@@H](N)C[C@H]2N)OC[C@]1(C)O.CN[C@@H]1[C@@H](O)[C@@H](O[C@@H]2[C@@H](O)[C@H](O[C@H]3O[C@H]([C@@H](C)N)CC[C@H]3N)[C@@H](N)C[C@H]2N)OC[C@]1(C)O.CN[C@@H]1[C@@H](O)[C@@H](O[C@@H]2[C@@H](O)[C@H](O[C@H]3O[C@H]([C@@H](C)NC)CC[C@H]3N)[C@@H](N)C[C@H]2N)OC[C@]1(C)O` [Gentamicine sulfate]: the “eye size Z-score” value came out at 0.48. The same measure, in the same setting: to `O=C1CC[C@@]2(O)[C@H]3Cc4ccc(O)c5c4[C@@]2(CCN3CC2CC2)[C@H]1O5` [Naltrexone hydrochloride dihydrate] belongs 0.11. On to `NCC(CC(=O)O)c1ccc(Cl)cc1` (stereo not drawn) [Baclofen], for which the “eye size Z-score” value is 0.11.

Regarding `CN1CCC2(C)c3cc(O)ccc3N(C)C12` (single isomer, unassigned; (-)) [(-) Eseroline fumarate salt], the “eye size Z-score” value was found to be 0.64. Consider `CC(NC(C)(C)C)C(=O)c1cccc(Cl)c1` (stereo not drawn) [Bupropion hydrochloride], for which the “eye size Z-score” value was 1.08. On the same count and under the same terms, in the case of `C#C[C@]1(O)CC[C@H]2[C@@H]3CCC4=CC(=O)CCC4=C3C=C[C@@]21CC` [Gestrinone] it was 1.57; in that of `CN1[C@@H]2C[C@@H](OC(=O)[C@H](CO)c3ccccc3)C[C@H]1[C@@H]1O[C@@H]12` [Scopolamine hydrochloride], 0.6; in that of `N[C@@H]1C[C@H]1c1ccccc1` [Tranylcypromine hydrochloride], 0.07.

As to `C#CCN(C)[C@H](C)Cc1ccccc1` [Selegiline hydrochloride], the “eye size Z-score” value is -0.39. The same measure, in the same setting: to `CN(C)C(=O)Oc1ccc[n+](C)c1` [Pyridostigmine iodide] belongs -1.04; to `CC1OC(OC2/C=C/C=C/C=C/C=C/CC/C=C/C=C/[C@H](C)[C@@H](O)[C@@H](C)[C@H](C)OC(=O)CC(O)CC(O)CC(O)CCC(O)C(O)C[C@]3(O)CC(O)C(C(=O)O)C(C2)O3)C(O)C(N)C1O` (stereo partly drawn) [Nystatine], -0.65. On the same count and under the same terms, to `NCCCNCCSP(=O)(O)O` [Amifostine] belongs 0.55. Turning to `CNCC(O)c1ccc(O)cc1` (stereo not drawn) [Synephrine], the “eye size Z-score” value came out at 1.05. Still for that read-out and setting: in the case of `CC(C)C[C@H]1C(=O)N2CCC[C@H]2[C@]2(O)O[C@](NC(=O)[C@@H]3C=C4c5cccc6[nH]c(Br)c(c56)C[C@H]4N(C)C3)(C(C)C)C(=O)N12` [Bromocryptine mesylate] it was 0.32; in that of `CN1[C@@H]2CC[C@H]1C[C@@H](OC(=O)C(CO)c1ccccc1)C2` (stereo partly drawn) [Atropine sulfate monohydrate], -0.31; in that of `CNC(C)(C)Cc1ccccc1` [Mephentermine hemisulfate], -0.41. On the same count and under the same terms, in the case of `C[C@]12CCC(=O)C(O)=C1CC[C@@H]1[C@@H]2CC[C@]2(C)C(=O)CC[C@@H]12` [Formestane] it was -1.2; in that of `COc1ccc(C(CN(C)C)C2(O)CCCCC2)cc1` (stereo not drawn) [Venlafaxine], 0.18; in that of `CNC(=O)Oc1ccc2c(c1)[C@]1(C)CCN(C)[C@@H]1N2C` [Eserine hemisulfate salt], 0.16. With `CCN(CC)CCOC(=O)C(O)(c1ccccc1)c1ccccc1` [Benactyzine hydrochloride], the “eye size Z-score” value amounted to 1.64.

For the compound `CN(C)C(=O)Oc1cccc([N+](C)(C)C)c1` [Neostigmine bromide], the “eye size Z-score” value was 1.51.

In the case of `CC(C)(N)Cc1ccccc1` [Phentermine hydrochloride], the “eye size Z-score” value is -0.37.

In the case of `CCNCC(O)c1cccc(O)c1` (stereo not drawn) [Etilefrine hydrochloride], the “eye size Z-score” value came out at 1.27. Take `COC[C@@H](NC(C)=O)C(=O)NCc1ccccc1` [Lacosamide]: the “eye size Z-score” value was -0.17. Same read-out and setting: in the case of `C[C@]12C/C(=C/O)C(=O)C[C@@H]1CC[C@@H]1[C@@H]2CC[C@@]2(C)[C@H]1CC[C@]2(C)O` [Oxymetholone] it was 0.36; in that of `CC(=O)[C@H]1CC[C@H]2[C@@H]3CC[C@H]4C[C@H](O)CC[C@]4(C)[C@H]3C(=O)C[C@]12C` [Alfaxalone], 0.88; in that of `C=C1C[C@@H]2[C@H](CC[C@]3(C)C(=O)CC[C@@H]23)[C@@]2(C)C=CC(=O)C=C12` [Exemestane], 0.07.

In the case of `C[C@]12COC(=O)C[C@@H]1CC[C@@H]1[C@@H]2CC[C@@]2(C)[C@H]1CC[C@]2(C)O` [Oxandrolone], the “eye size Z-score” value was found to be 0.88. As for `O=P1(N(CCCl)CCCl)NCCCO1` (stereo not drawn) [Cyclophosphamide], the “eye size Z-score” value was 0.97. Take `CN1C(=O)CCS(=O)(=O)C1c1ccc(Cl)cc1` (stereo not drawn) [Chlormezanone]: the “eye size Z-score” value is -0.53. On the same count and under the same terms, in the case of `CC(=O)NC1CCSC1=O` (stereo not drawn) [Citiolone] it was 0.79; in that of `C=CCC1(CC(C)C)C(=O)NC(=O)NC1=O` [Butalbital], 0.17; in that of `O=C(CCCN1CCC(n2c(=O)[nH]c3ccccc32)CC1)c1ccc(F)cc1` [Benperidol], 0.42. Same read-out and setting: to `C[C@@H]1CN([C@H]2CC[C@](C#N)(c3ccc(F)cc3)CC2)CC[C@]1(C(=O)O)c1ccccc1` [Levocabastine hydrochloride] belongs 0.2.

As for `COc1ccc(OC)c(C(O)C(C)N)c1` (stereo not drawn) [Methoxamine hydrochloride], the “eye size Z-score” value is -0.19.

As for `CCC(=O)O[C@H]1CC[C@H]2[C@@H]3CCC4=CC(=O)CC[C@]4(C)[C@H]3CC[C@]12C` [Testosterone propionate], the “eye size Z-score” value is -0.19.
